Binding data for 1 molecule are collected here from paper doi:10.1101/2021.12.07.471666.

Chains of the proteins cited; added tags and fusions are not shown.
UniProt P06730: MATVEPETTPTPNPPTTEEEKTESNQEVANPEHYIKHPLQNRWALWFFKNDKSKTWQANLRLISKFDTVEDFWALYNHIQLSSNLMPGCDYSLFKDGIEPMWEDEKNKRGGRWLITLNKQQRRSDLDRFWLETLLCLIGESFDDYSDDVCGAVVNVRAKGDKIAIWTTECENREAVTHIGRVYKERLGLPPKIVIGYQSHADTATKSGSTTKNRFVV

No constants are given. Whether binding was seen depends on the method and setting. Binding seen in cells or lysates may run through a third protein. Some binding calls cover weakened binding; strength is not graded here.

The target of assay [1] is eukaryotic translation initiation factor eIF4E (endogenous, nuclear, U2OS) (human (endogenous in U2OS)) (UniProt P06730). Nature of the assay: co-IP.
Assay [2] addresses eIF4E in eIF4E-overexpressing NOMO-1 cells (MSCV-pgk-GFP-eIF4E wildtype, not a GFP fusion) (UniProt P06730). Put plainly: co-IP.

B1: PRPF6 (protein, UniProt O94906 1-941)
chain: MNKKKKPFLGMPAPLGYVPGLGRGATGFTTRSDIGPARDANDPVDDRHAPPGKRTVGDQMKKNQAADDDDEDLNDTNYDEFNGYAGSLFSSGPYEKDDEEADAIYAALDKRMDERRKERREQREKEEIEKYRMERPKIQQQFSDLKRKLAEVTEEEWLSIPEVGDARNKRQRNPRYEKLTPVPDSFFAKHLQTGENHTSVDPRQTQFGGLNTPYPGGLNTPYPGGMTPGLMTPGTGELDMRKIGQARNTLMDMRLSQVSDSVSGQTVVDPKGYLTDLNSMIPTHGGDINDIKKARLLLKSVRETNPHHPPAWIASARLEEVTGKLQVARNLIMKGTEMCPKSEDVWLEAARLQPGDTAKAVVAQAVRHLPQSVRIYIRAAELETDIRAKKRVLRKALEHVPNSVRLWKAAVELEEPEDARIMLSRAVECCPTSVELWLALARLETYENARKVLNKARENIPTDRHIWITAAKLEEANGNTQMVEKIIDRAITSLRANGVEINREQWIQDAEECDRAGSVATCQAVMRAVIGIGIEEEDRKHTWMEDADSCVAHNALECARAIYAYALQVFPSKKSVWLRAAYFEKNHGTRESLEALLQRAVAHCPKAEVLWLMGAKSKWLAGDVPAARSILALAFQANPNSEEIWLAAVKLESENDEYERARRLLAKARSSAPTARVFMKSVKLEWVQDNIRAAQDLCEEALRHYEDFPKLWMMKGQIEEQKEMMEKAREAYNQGLKKCPHSTPLWLLLSRLEEKIGQLTRARAILEKSRLKNPKNPGLWLESVRLEYRAGLKNIANTLMAKALQECPNSGILWSEAIFLEARPQRRTKSVDALKKCEHDPHVLLAVAKLFWSQRKITKAREWFHRTVKIDSDLGDAWAFFYKFELQHGTEEQQEEVRKRCESAEPRHGELWCAVSKDIANWQKKIGDILRLVAGRIKNTF
Turning to B1, the binding entry in assay [1] and in assay [2] was “binds” in each case.
